PubChem BioAssay AID2417 (National Center for Advancing Translational Sciences (NCATS), 2010)
Hit rate of the full screen: of about 140,000 compounds, about 4,300 (3.1%) were called active. The shares of active, inactive and inconclusive entries below differ from those in the screen.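 How the source made its calls: active means readout at or below -70, meaning at least 70% loss of cells showing the perinucleolar compartment, a nuclear body marking cancer cells; inconclusive means readout between -30 and a set limit; inactive means the rest.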

Assay: High Content Assay for Compounds that inhibit the Assembly of the Perinucleolar Compartment;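 further: plate controls were DMSO wells for no effect and camptothecin positive control wells for full effect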
Settings: PC3M PTB-GFP, PNC prevalence imaging, 16 h; at 10 µM; active compounds read low
Summary of the method: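 Read-out is percentage of cells bearing a perinucleolar compartment, from automated 20x imaging of fixed, Hoechst-stained PC3M PTB-GFP cells. Cells were seeded 4 h, then exposed 16 h to compound (23 nl of library stock) in duplicate plates.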

Row | Compound | activity change (PNC), negative = inhibition
1 | COCCNC(=O)c1ccc2c(c1)NC(=O)CS2 | inactive: -28.7%
2 | CCOc1ccccc1NC(=O)c1nc[nH]c1C(=O)Nc1ccccc1OCC | inconclusive: -31.2%
3 | CCCc1nc2ccccc2c(C(=O)OCC(=O)Nc2c(C)n(C)n(-c3ccccc3)c2=O)c1CC | inconclusive: -49.7%
4 | CCCCC[C@H](O)/C=C/[C@H]1C=CC(=O)[C@@H]1C/C=C\CCCC(=O)O | active: -96.1%
5 | CN(C(=O)c1ccncc1)c1nnc(-c2cccnc2)s1 | inconclusive: -32.8%
6 | Cc1ccc(OCC(=O)N(Cc2ccccc2)C(C)C)c([N+](=O)[O-])n1 | inactive: 9.04%
7 | Cc1ccc2[nH]c(-c3cccc(N)c3)cc2c1 | inconclusive: -43.2%
8 | CC(=O)Nc1nc2ccccc2n1Cc1ccccc1C | inconclusive: -34.1%
9 | Cc1c(Cl)cnc(NC(=O)COC(=O)CCS(=O)(=O)c2ccccc2)c1Cl | inconclusive: -33.9%
10 | Cc1ccc(NC(=S)N2CCOCC2)c(C)c1 | inconclusive: -47.4%
11 | COc1ccc(OC)c(N=C(C)C2=C(O)COC2=O)c1 | inactive: -21.2%
12 | COCCNC(=O)CS(=O)(=O)Cc1nc(-c2ccc(C)cc2)oc1C | inconclusive: -43.1%
13 | Cc1nn(-c2ccccc2)c(C)c1NC(=O)COc1ccc(C#N)cc1 | active: -80.4%
14 | Cc1ccc(-c2csc3nnc(SCC(=O)Nc4cccc(C)n4)n23)cc1 | inactive: 29%
15 | N#Cc1ccsc1NC(=O)CN1CCCCC1 | inactive: 8.2%
16 | O=c1c2ccccc2oc2ncccc12 | inconclusive: -34.2%
17 | CCN(C(=O)COc1ncnc2scc(-c3ccc(F)cc3)c12)C1CCS(=O)(=O)C1 (stereo not given) | inconclusive: -57.1%
18 | Fc1ccc(C2CC(c3ccccc3)n3ncnc3N2)cc1 (stereo not given) | inconclusive: -50.8%
19 | CN(C)P(=NC(=O)COc1ccc(Cl)cc1Cl)(N(C)C)N(C)C | inactive: 0.482%
20 | CCn1c(SCC(=O)Nc2ccc(OCc3ccccc3)cc2)nnc1-c1ccco1 | inconclusive: -32.9%
21 | CCCOc1ccccc1C1CC(=O)Nc2cc3c(cc21)OCO3 (stereo not given) | active: -92%
22 | CC(=O)c1ccc(N2CCN(C(=O)CCCn3c(=S)[nH]c4cc5c(cc4c3=O)OCO5)CC2)cc1 | inconclusive: -30.2%
23 | O=C(c1cnccn1)N1CCN(c2ccccc2F)CC1 | inconclusive: -30.3%

Row | Compound | activity change (PNC), negative = inhibition
24 | COc1cc(OC)cc(C(=O)NC(C(=O)NCCN(C)C)C23CC4CC(CC(C4)C2)C3)c1 (stereo not given) | inconclusive: -73.3%
25 | O=C(NC12CC3CC(CC(C3)C1)C2)C12CC3CC(C1)CC(n1cnc(Cl)n1)(C3)C2 | inactive: 10.3%
26 | CC1=C(C(=O)OCC(C)C)C23C(=O)c4ccccc4C2(O1)OC(N)=C3C#N (stereo not given) | inconclusive: -37.8%
27 | Cc1ccccc1OCCNC(=O)c1ccc2ccccc2n1 | inactive: -23.6%
28 | CC(C)CNC(=S)Nc1ccccc1F | inconclusive: -35.4%
29 | O=C(Nc1ccccn1)C(F)(F)C(F)(F)C(F)(F)C(F)(F)C(=O)Nc1ccccn1 | inactive: -29.2%
30 | Cc1cc(C(=O)NCc2cc(C)n(C)n2)sc1-c1ccccc1 | inconclusive: -30.7%
31 | COc1ccc2c(c1)N(C)/C(=C1/SC(=NCc3ccccc3)N(c3ccccc3)C1=O)S2 | inconclusive: -41.4%
32 | Cc1ccc(S(=O)(=O)N2CCC(C(=O)Nc3nnc(C45CC6CC(CC(C6)C4)C5)s3)CC2)cc1 | inactive: 116%
33 | Cn1cnnc1SCC(=O)N1CCc2ccccc21 | inconclusive: -30.1%
34 | O=C(NCCc1ccc(Cl)cc1)Nc1cccc(Cl)c1 | inactive: 71.8%
35 | COc1ccc(-c2coc3cc4oc(=O)cc(-c5ccccc5)c4cc23)cc1F | active: -111%
36 | C=CCC(O)(CCN1CCCCC1)c1ccccc1 (stereo not given) | inactive: -14%
37 | COc1ccc(N2C(=O)CC(N3CCN(c4nc5ccccc5s4)CC3)C2=O)cc1 (stereo not given) | inactive: 8.6%
38 | Cc1onc(-c2ccccc2Cl)c1C(=O)N1C=CC(C(F)(F)F)=NCC1 | inconclusive: -59.4%
39 | O=C(CSc1ccc(-c2nc3ccccc3[nH]2)cn1)Nc1ccc(S(=O)(=O)NC2CC2)cc1 | inconclusive: -36.8%
40 | Cc1ccc(OCC(=O)Nc2ccccc2-c2ccccc2NC(=O)COc2ccc(C)cc2)cc1 | inconclusive: -41.1%
41 | Oc1c(C=Nc2cccnc2)sc2ccccc12 | inconclusive: -43.2%
42 | CC1Oc2ccccc2N(CC(=O)NCCc2ccccc2)C1=O (stereo not given) | inconclusive: -30.3%
43 | COc1ccc(S(=O)(=O)Nc2ccc(Cl)cn2)c(C)c1C | inactive: 22.1%
44 | O=C(NCCCN1CCCC1=O)c1cccs1 | inconclusive: -64%
45 | CCOC(=O)N1CCN(C(=O)c2ccc(-n3c(=S)[nH]c4ccccc4c3=O)cc2)CC1 | inactive: 122%
46 | COc1cccc(-c2nnc3sc(C4CCCCC4)nn23)c1 | inactive: 21.7%

In the list so far, two contain a furan ring, fused or not.
Row | Compound | activity change (PNC), negative = inhibition
20 | CCn1c(SCC(=O)Nc2ccc(OCc3ccccc3)cc2)nnc1-c1ccco1 | inconclusive: -32.9%
35 | COc1ccc(-c2coc3cc4oc(=O)cc(-c5ccccc5)c4cc23)cc1F | active: -111%

Reformatted: results already given.
CCn1c(SCC(=O)Nc2ccc(OCc3ccccc3)cc2)nnc1-c1ccco1
  activity change (PNC), negative = inhibition: inconclusive: -32.9%
CC(=O)c1ccc(N2CCN(C(=O)CCCn3c(=S)[nH]c4cc5c(cc4c3=O)OCO5)CC2)cc1
  activity change (PNC), negative = inhibition: inconclusive: -30.2%

Further results follow:

Row | Compound | activity change (PNC), negative = inhibition
47 | CCC(C)(C)C1CCc2c(sc(NC(=O)c3ccoc3C)c2C(N)=O)C1 (stereo not given) | inconclusive: -39%
48 | COc1ccc(/C=N/NC(=O)CCc2nc3ccccc3[nH]2)cc1 | inconclusive: -37.7%
49 | Cn1c(SCC(=O)N/N=C/c2ccc([N+](=O)[O-])s2)nnc1-c1ccc(Cl)cc1 | inconclusive: -60.7%
50 | CC(=O)NCc1ccc(-c2csc(N)n2)s1 | inconclusive: -58.9%
51 | O=C(NCCC1=CCCCC1)C1CCC(CNS(=O)(=O)c2ccccc2)CC1 (stereo not given) | inactive: -12.2%
52 | c1nc(NCCN2CCOCC2)c2c3c(sc2n1)CCCCC3 | inconclusive: -47%
53 | O=C(O)c1cc2c(ccc3ccccc32)o1 | inactive: -16.6%
54 | CCC(=O)Nc1ccc(C(=O)OCc2ccc(Cl)c(Cl)c2)cc1 | inconclusive: -41.6%
55 | O=C(/C=C/Nc1ccc(F)cc1Br)c1ccccc1 | inconclusive: -52.9%
56 | CCc1cc2c(=O)c(-c3cscn3)coc2c(CN(C)C)c1O | inconclusive: -31.8%
57 | O=C1c2[nH]nc(-c3ccccc3O)c2C(c2ccccc2F)N1Cc1ccco1 (stereo not given) | inactive: 16.5%
58 | O=C(NNC(=S)NC(=O)c1ccccc1[N+](=O)[O-])c1ccccc1 | inconclusive: -32.1%
59 | COc1cc(-n2c(C)nc3cc(C(=O)N4CCOCC4)ccc32)cc(OC)c1OC | inconclusive: -48.9%
60 | Cc1cccc(Cn2c(N3CCc4ccccc4C3)nc3c2c(=O)[nH]c(=O)n3C)c1 | inactive: -11.8%
61 | CSC(=NC1CCCCC1)NS(=O)(=O)c1ccccc1 | inactive: -6.74%
62 | CN(C)c1ccc(Nc2nc(N)c([N+](=O)[O-])c(N3CCOCC3)n2)cc1 | inconclusive: -50.1%
63 | CC(C)(C)c1ccc(-c2nnc(SCCN3C(=O)c4ccccc4C3=O)o2)cc1 | inactive: 37.2%
64 | Cc1cc(Cl)c(S(=O)(=O)N2CCN(c3ccccc3)CC2)cc1OCC(N)=O | inconclusive: -37.1%
65 | CC(=O)c1cccc(NC(=O)N2CCCC2C(=O)NC2CCCCC2)c1 (stereo not given) | inconclusive: -35.9%
66 | CCn1nccc1C(=O)Nc1ccc(Cl)cc1Cl | inconclusive: -48.5%
67 | C=CCN(CC=C)S(=O)(=O)c1ccc(NC(=S)NC(=O)c2ccc(-c3ccccc3)cc2)cc1 | inactive: 21%
68 | Cc1cc(OCCN2CCCC2)ccc1C(C)C | active: -100%
69 | O=C(NC(=S)Nn1cnc2c(cnn2-c2ccccc2)c1=O)c1ccc(Cl)cc1 | inconclusive: -37.1%

Row | Compound | activity change (PNC), negative = inhibition
70 | COc1cccc(CNc2cccc3cccnc23)c1O | active: -94.1%
71 | CCCCOc1ccc(C(C)NC(=O)CCS(=O)(=O)Cc2ccccc2F)cc1 (stereo not given) | inconclusive: -30.7%
72 | Cc1c(NC(=O)COC(=O)c2ccc[nH]c2=O)c(=O)n(-c2ccccc2)n1C | inactive: -3.83%
73 | Cc1ccc(-c2nc(SCC(=O)NCC3CCCO3)c(-c3ccc(Cl)cc3)[nH]2)cc1 (stereo not given) | inactive: 31.5%
74 | Cc1noc(/C=C/N(C)C)c1S(=O)(=O)N1CCCC(C(=O)NCc2ccc(Cl)cc2)C1 (stereo not given) | inconclusive: -38.1%
75 | CCC(=O)Nc1ccc(-c2nnc(SCC(=O)NCC3CCCO3)n2C)cc1 (stereo not given) | inconclusive: -44%
76 | CCCOc1ccccc1N/C(=N/c1nc(C)cc(C)n1)NC(=O)Nc1ccc(Cl)cc1 | inconclusive: -31.8%
77 | CCn1c(CSc2nc3ccccc3n2C)nc2ccccc21 | inconclusive: -35.3%
78 | COc1ccc(NC(=O)c2cc(-c3ccccc3OC)on2)cc1 | inconclusive: -55.4%
79 | COc1ccc(/C=C/C(=O)Nc2cccc(N3CCOCC3)c2)cc1OC | inconclusive: -36.6%
80 | CC(=O)N1c2ccccc2C(C)(C)C2CCC(C)CC21 (stereo not given) | inconclusive: -30.3%
81 | O=C(CSc1nc2ccccc2c(=O)n1-c1ccccc1)N1CCCC1 | inactive: -25.7%
82 | CC(=O)N1CCN(c2ccc(NC(=O)c3ccccc3Br)cc2Cl)CC1 | inconclusive: -34.4%
83 | COc1ccc(-c2nc(N)n(C(=O)Cc3ccccc3)n2)cc1 | inconclusive: -55%
84 | N#C/C(=C(/O)C(Cl)c1ccccc1)c1nc2ccccc2s1 (stereo not given) | inconclusive: -70.6%
85 | COCCn1c(=S)[nH]c2ccc(N(C)C)cc2c1=O | inactive: 24.6%
86 | CCN1C(=O)CC(N2CCC(C(=O)N3CCOCC3)CC2)C1=O (stereo not given) | inconclusive: -33%
87 | Cc1cc(SCC(=O)Nc2cccc(S(=O)(=O)NC3=NCCCCC3)c2)c(C)cc1Br | inconclusive: -37.6%
88 | CCCCn1c(=O)[nH]c2nc3cc(N)ccc3nc2c1=O | inactive: -27.2%
89 | O=C(NCCN1CCOCC1)c1c[nH]c2ccc(S(=O)(=O)N3CCOCC3)cc2c1=O | inactive: 40.2%
90 | COC(=O)c1c(NC(=O)c2ccc(C)cc2)sc(Cc2ccccc2)c1C | inactive: -11.2%
